# These results got no clear call from the source, so the numbers are uncertain.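 How the source made its calls: active means lowers substrate conversion with a fitted half-maximal potency at most ten times the top dose, in every run; inconclusive means runs disagree, or flat weak or poorly fitted curves; inactive means every run inactive, flat, weak or opposite direction.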
# Molecular target: cAMP-dependent protein kinase catalytic subunit alpha (Homo sapiens) (UniProt P17612)
# Test: inhibition of human PKA kinase activity – biochemical, Caliper mobility shift, dry powder samples, dose response (AID 504583)
# Settings: recombinant PKA, Caliper peptide phosphorylation % conversion; at 10 µM (top of the series)
compound,measurement,value
COC(=O)c1ccc(COc2ccccc2/C=C/C(=O)c2ccc(OCC(=O)O)cc2)cc1,% substrate conversion (lower = inhibition),inconclusive: 9.69%

# Source: PubChem BioAssay AID504583 (Broad Institute, 2011)
